The supplement of paper PMC7661543
± gives the standard deviation of the averaged measurements. The effect of the compound repeats well; differences between the knockouts mostly do not.

Test system: MDA-MB-231
Assay: relative cell number vs DMSO control (72 h) (% of DMSO); higher = less growth inhibition (more cells)
Description: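 QMAP-Seq: a pool of 5 breast cancer cell lines (ZR-75-1, SKBR3, HCC-38, MDA-MB-231, BT-20), each carrying 12 doxycycline-inducible Cas9 sgRNA perturbations (11 knockouts plus non-targeting sgNT), was treated with compounds for 72 h at four 10-fold doses (10 nM-10 uM or 1 nM-1 uM range). Barcodes were amplified and sequenced, and cell number was interpolated from 293T spike-in standard curves. The result is expressed as % of the median of DMSO wells. Two biological replicates.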

Cc1ccc(Nc2nccc(N(C)c3ccc4c(C)n(C)nc4c3)n2)cc1S(N)(=O)=O [Pazopanib]
Conditions	relative cell number
sgRNA knockout: sgATF3, 10 nM	98.4 ± 4
sgRNA knockout: sgATF3, 100 nM	101 ± 14
sgRNA knockout: sgATF3, 1000 nM	85.6 ± 14
sgRNA knockout: sgATF3, 10000 nM	54.5 ± 2.9
sgRNA knockout: sgATF4, 10 nM	114.4 ± 1.1
sgRNA knockout: sgATF4, 100 nM	86.9 ± 24
sgRNA knockout: sgATF4, 1000 nM	115 ± 35
sgRNA knockout: sgATF4, 10000 nM	51.8 ± 22
sgRNA knockout: sgATF6, 10 nM	97.7 ± 37
sgRNA knockout: sgATF6, 100 nM	108 ± 3.8
sgRNA knockout: sgATF6, 1000 nM	84.9 ± 6
sgRNA knockout: sgATF6, 10000 nM	55.2 ± 17
sgRNA knockout: sgATG7, 10 nM	95.3 ± 2.3
sgRNA knockout: sgATG7, 100 nM	91.1 ± 1.8
sgRNA knockout: sgATG7, 1000 nM	96.2 ± 4.2
sgRNA knockout: sgATG7, 10000 nM	59.8 ± 8.3
sgRNA knockout: sgERN1, 10 nM	105 ± 19
sgRNA knockout: sgERN1, 100 nM	73.6 ± 2.9
sgRNA knockout: sgERN1, 1000 nM	85.4 ± 14
sgRNA knockout: sgERN1, 10000 nM	60 ± 6.1
sgRNA knockout: sgHSF1, 10 nM	97.7 ± 2.3
sgRNA knockout: sgHSF1, 100 nM	79.1 ± 19
sgRNA knockout: sgHSF1, 1000 nM	95.7 ± 7.3
sgRNA knockout: sgHSF1, 10000 nM	44.9 ± 4.7
sgRNA knockout: sgHSF2, 10 nM	115 ± 6
sgRNA knockout: sgHSF2, 100 nM	115 ± 29
sgRNA knockout: sgHSF2, 1000 nM	94.1 ± 19
sgRNA knockout: sgHSF2, 10000 nM	68.8 ± 26
sgRNA knockout: sgKEAP1, 10 nM	97.8 ± 11
sgRNA knockout: sgKEAP1, 100 nM	95.7 ± 35
sgRNA knockout: sgKEAP1, 1000 nM	85 ± 16
sgRNA knockout: sgKEAP1, 10000 nM	58.2 ± 30
sgRNA knockout: sgNFE2L2, 10 nM	91.489 ± 0.086
sgRNA knockout: sgNFE2L2, 100 nM	84.78 ± 0.3
sgRNA knockout: sgNFE2L2, 1000 nM	81.14 ± 0.8
sgRNA knockout: sgNFE2L2, 10000 nM	67.6 ± 11
sgRNA knockout: sgSLC35F2, 10 nM	118 ± 12
sgRNA knockout: sgSLC35F2, 100 nM	99.1 ± 3.2
sgRNA knockout: sgSLC35F2, 1000 nM	104 ± 5
sgRNA knockout: sgSLC35F2, 10000 nM	58.6 ± 22
sgRNA knockout: sgXBP1, 10 nM	99.1 ± 4
sgRNA knockout: sgXBP1, 100 nM	101 ± 6.4
sgRNA knockout: sgXBP1, 1000 nM	99.5 ± 13
sgRNA knockout: sgXBP1, 10000 nM	69.4 ± 3.6

C=CCn1c(=O)c2cnc(Nc3ccc(N4CCN(C)CC4)cc3)nc2n1-c1cccc(C(C)(C)O)n1 [MK1775]
Conditions	relative cell number
sgRNA knockout: sgATF3, 10 nM	85.47 ± 0.6
sgRNA knockout: sgATF3, 100 nM	98.1 ± 20
sgRNA knockout: sgATF3, 1000 nM	24.304 ± 0.023
sgRNA knockout: sgATF3, 10000 nM	13 ± 2.1
sgRNA knockout: sgATF4, 10 nM	118 ± 36
sgRNA knockout: sgATF4, 100 nM	73.7 ± 9.8
sgRNA knockout: sgATF4, 1000 nM	20.9 ± 3.7
sgRNA knockout: sgATF4, 10000 nM	8.04 ± 1.9
sgRNA knockout: sgATF6, 10 nM	97.2 ± 38
sgRNA knockout: sgATF6, 100 nM	92.8 ± 16
sgRNA knockout: sgATF6, 1000 nM	17 ± 5.8
sgRNA knockout: sgATF6, 10000 nM	9.51 ± 0.87
sgRNA knockout: sgATG7, 10 nM	85.8 ± 8.8
sgRNA knockout: sgATG7, 100 nM	102 ± 14
sgRNA knockout: sgATG7, 1000 nM	21.8 ± 2.6
sgRNA knockout: sgATG7, 10000 nM	8.46 ± 1.9
sgRNA knockout: sgERN1, 10 nM	84.9 ± 8.9
sgRNA knockout: sgERN1, 100 nM	98.6 ± 1.1
sgRNA knockout: sgERN1, 1000 nM	23.9 ± 4.3
sgRNA knockout: sgERN1, 10000 nM	7.63 ± 0.21
sgRNA knockout: sgHSF1, 10 nM	90.7 ± 8.7
sgRNA knockout: sgHSF1, 100 nM	81.9 ± 9
sgRNA knockout: sgHSF1, 1000 nM	26.72 ± 0.24
sgRNA knockout: sgHSF1, 10000 nM	9.39 ± 2.9
sgRNA knockout: sgHSF2, 10 nM	82.4 ± 7.6
sgRNA knockout: sgHSF2, 100 nM	96.7 ± 6.1
sgRNA knockout: sgHSF2, 1000 nM	19.7 ± 2.1
sgRNA knockout: sgHSF2, 10000 nM	11 ± 2.1
sgRNA knockout: sgKEAP1, 10 nM	85.9 ± 16
sgRNA knockout: sgKEAP1, 100 nM	100 ± 13
sgRNA knockout: sgKEAP1, 1000 nM	25.2 ± 7
sgRNA knockout: sgKEAP1, 10000 nM	11.09 ± 0.068
sgRNA knockout: sgNFE2L2, 10 nM	72 ± 5.2
sgRNA knockout: sgNFE2L2, 100 nM	86.5 ± 8.9
sgRNA knockout: sgNFE2L2, 1000 nM	23.4 ± 3.5
sgRNA knockout: sgNFE2L2, 10000 nM	9.31 ± 2
sgRNA knockout: sgSLC35F2, 10 nM	85.03 ± 0.53
sgRNA knockout: sgSLC35F2, 100 nM	72.7 ± 17
sgRNA knockout: sgSLC35F2, 1000 nM	18.9 ± 5.1
sgRNA knockout: sgSLC35F2, 10000 nM	13.1 ± 2.7
sgRNA knockout: sgXBP1, 10 nM	91.3 ± 17
sgRNA knockout: sgXBP1, 100 nM	107 ± 0.18
sgRNA knockout: sgXBP1, 1000 nM	24.6 ± 8.6
sgRNA knockout: sgXBP1, 10000 nM	10.6 ± 0.98
